The values that follow come from patent US20190023809A1, “ANTI-NICOTINAMIDE PHOSPHORIBOSYLTRANSFERASE ANTIBODY GENES AND METHODS OF USE THEREOF” (The Children's Mercy Hospital, priority 2015, published 2019).

By UniProt entry, the sequences of proteins in these tests, tags left out.
UniProt Q99KQ4: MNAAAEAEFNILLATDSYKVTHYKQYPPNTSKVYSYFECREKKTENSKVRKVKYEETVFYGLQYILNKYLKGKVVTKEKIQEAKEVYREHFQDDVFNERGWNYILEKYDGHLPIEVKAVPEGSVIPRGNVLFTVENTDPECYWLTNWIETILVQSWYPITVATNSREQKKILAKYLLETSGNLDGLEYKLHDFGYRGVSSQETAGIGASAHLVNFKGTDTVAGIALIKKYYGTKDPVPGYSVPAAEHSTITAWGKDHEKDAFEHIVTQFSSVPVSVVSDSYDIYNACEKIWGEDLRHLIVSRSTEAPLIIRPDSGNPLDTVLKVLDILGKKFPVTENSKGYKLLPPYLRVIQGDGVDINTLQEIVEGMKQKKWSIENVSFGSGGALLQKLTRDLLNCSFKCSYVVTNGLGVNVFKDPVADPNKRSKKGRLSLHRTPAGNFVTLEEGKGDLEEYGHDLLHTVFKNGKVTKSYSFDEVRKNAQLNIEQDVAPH

The target of test [1] is purified recombinant mouse NAMPT protein (mouse) (UniProt Q99KQ4). Kind of test: phage display library screen against purified recombinant NAMPT.
For test [2] the target is unchanged. Kind of test: phage display library screen against purified recombinant mouse NAMPT.

No constants are given. Whether binding was seen depends on the method and setting. Some entries that bind do so weakly or less than the wild type.

B1: NAMPT-scFv2 (scFv)
scFv: MEVQLLESGGGLVQPGGSLRLSCAASGFAFSSYAMSWVRQAPGKGLEWVSNISGRGAKTTYADSVKGRFTISRDNSKNTLYLQMNSLRAEDTAVYYCAKTYLVFDYWGQGTLVTVSSGGGGSGGGGSGGGGSTDIQMTQSPSSLSASVGDRVTITCRASQSISSYLNWYQQKPGKAPKLLIYRASSLQSGVPSRFSGSGSGTDFTLTISSLQPEDFATYYCQQISATPTTFGQGTKVEIKRAAHHHHHH
Take B1: the binding entry in test [1] and in test [2] was “binds” throughout.

B2: NAMPT-scFv1 (scFv)
scFv: MEVQLLESGGGLVQPGGSLRLSCAASGFTFSSYAMSWVRQAPGKGLEWVSVINVPGNRTSYADSVKGRFTISRDNSKNTLYLQMNSLRAEDTAVYYCAKKTRRFDYWGQGTLVTVSSGGGGSGGGGSGGGGSTDIQMTQSPSSLSASVGDRVTITCRASQSISSYLNWYQQKPGKAPKLLIYGASVLQSGVPSRFSGSGSGTDFTLTISSLQPEDFATYYCQQRVRSPATFGQGTKVEIKRHHHHHH
For the molecule B2, the binding entry in test [1] and in test [2] was “binds” throughout.
